Assay results: publication PMC11774777, “A PDZ-kinase allosteric relay mediates Par complex regulator exchange” (The Journal of Biological Chemistry, 2024)
No constants are given. Whether binding was seen depends on the method and setting. Some entries that bind do so weakly or less than the wild type. Sequences can lack the tags named with a protein.

Molecular target: T1, his-Par-6, full length (UniProt O97111)
T1 sequence: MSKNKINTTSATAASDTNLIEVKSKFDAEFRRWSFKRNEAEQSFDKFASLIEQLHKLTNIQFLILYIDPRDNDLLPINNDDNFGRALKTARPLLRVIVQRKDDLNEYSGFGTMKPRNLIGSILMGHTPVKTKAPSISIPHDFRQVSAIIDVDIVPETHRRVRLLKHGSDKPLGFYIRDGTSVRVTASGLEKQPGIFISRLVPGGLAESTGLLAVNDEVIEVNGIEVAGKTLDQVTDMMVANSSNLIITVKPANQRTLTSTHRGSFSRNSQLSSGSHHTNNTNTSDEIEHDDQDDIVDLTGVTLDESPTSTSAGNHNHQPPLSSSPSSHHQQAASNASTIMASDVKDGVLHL
Experiment: co-purification; co-expressed in HEK 293F cells; lysate on HisPur Cobalt resin, then anion exchange (Source Q, 100 to 550 mM NaCl), fractions with the desired proteins pooled

binding: binds
B1: aPKC, full length, as co-expressed in the Par complexes (enzyme, UniProt A1Z9X0 1-606)
chain: MQKMPSQILNDGSSVSLNSASMNMANTPNSITVKTAYNGQIIITTINKNISYEELCYEIRNICRFPLDQPFTIKWVDEENDPCTISTKMELDEAIRLYEMNFDSQLVIHVFPNVPQAPGLSCDGEDRSIYRRGARRWRKLYRVNGHIFQAKRFNRRAFCAYCQDRIWGLGRQGFKCIQCKLLVHKKCHKLVQKHCTDQPEPLVKERAEESSDPIPVPLPPLPYEAMSGGAEACETHDHAHIVAPPPPEDPLEPGTQRQYSLNDFELIRVIGRGSYAKVLMVELRRTRRIYAMKVIKKALVTDDEDIDWVQTEKHVFETASNHPFLVGLHSCFQTPSRLFFVIEFVRGGDLMYHMQRQRRLPEEHARFYAAEISLALNFLHEKGIIYRDLKLDNVLLDHEGHIKLTDYGMCKEGIRPGDTTSTFCGTPNYIAPEILRGEDYGFSVDWWALGVLLYEMLAGRSPFDLAGASENPDQNTEDYLFQVILEKTIRIPRSLSVRAASVLKGFLNKNPADRLGCHRESAFMDIVSHPFFKNMDWELLERKQVTPPFKPRLDSDRDLANFPPEFTGEAVQLTPDDDHVIDNIDQSEFEGFEYVNPLLMSLEDCV
